From patent publication US20220008359A1, “COMBINATION ANTI-CANCER PRODUCTS AND METHODS” (priority 2020, published 2022)
At least one compound was matched to its structure with a doubt left.

System: H1975 cells
Test: Trypan blue cell death assay, H1975 cells (wild type, afatinib- and osimertinib-resistant)
Type: cell-based, human
Details: osimertinib-resistant H1975 and H1650 cells, 24 h

Structure (SMILES): CN(C)C/C=C/C(=O)Nc1cc2c(Nc3ccc(F)c(Cl)c3)ncnc2cc1O[C@H]1CCOC1 [afatinib, Afatinib]
- ability to enhance GZ17-6.02 killing: modestly enhancing tumor cell killing
